Taken from: PubChem BioAssay AID493246 (Drosophila RNAi Screening Center, 2011)
Screen: 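Genome-wide search for dsRNAs that reduce cell number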 (primary screen). Cell system: Drosophila Kc and S2R+ cells. Knock-down reagent: long dsRNA against Drosophila genes. Read-out: 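Raw, unnormalised count of remaining cells in each well; per-plate z-scores of cell number underlie the calls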. Scale: Kc cell number and S2R+ cell number: higher = more cells remaining. Rule for the call: 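Active when the per-plate z-score of cell number is 3 or more in the direction of fewer cells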.
The screen tested about 21,000 reagents; below is an unselected part of those that have a named target and a result. In the full data, 429 (2%) are marked active. 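Values are raw and not normalised between plates; calls rest on per-plate z-scores that were not deposited.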 A number with no mark means an inactive call. Reagent sequences are not shown. Not given: the amount of reagent, the time to read-out.

target gene	PubChem SID	Kc cell number, rep 1	Kc cell number, rep 2	S2R+ cell number, rep 1	S2R+ cell number, rep 2
Cyp4g1	SID104198251	4.94e5		7.27e5	
Cog3	SID104180377	1.17e6	1.33e6	8.69e5	8.36e5
Gem3	SID104190936	1.55e6	1.66e6	1.21e6	1.43e6
CG13059	SID104189734	1.46e6	1.58e6	1.33e6	1.51e6
CG17977	SID104186492	1.52e6	1.62e6	1.22e6	1.30e6
CG4009	SID104195328	1.32e6	1.45e6	1.07e6	1.15e6
CG14857	SID104194773	1.36e6	1.37e6	1.10e6	1.20e6
CG31673	SID104182999	1.39e6	1.46e6	1.00e6	9.89e5
CG18628	SID104190120	1.54e6	1.75e6	1.23e6	1.27e6
CG34406 (retired record)	SID104180315	1.25e6	1.30e6	8.92e5	1.03e6
CG34406 (retired record)	SID104180398	1.62e6	1.54e6	1.21e6	1.37e6
Nubp1	SID104182431	1.38e6	1.43e6	1.40e6	1.38e6
CG30034 (retired record)	SID104185080	1.47e6	1.56e6	1.03e6	1.19e6
Rbp4	SID104196610	1.29e6	1.48e6	1.10e6	1.25e6
CG8060	SID104186856	1.37e6	1.44e6	1.28e6	1.29e6
CG31678	SID104182410	9.58e5	1.08e6	7.05e5	5.47e5
CG31678	SID104182411	1.57e6	1.71e6	1.15e6	2.68e5
Cdk4	SID104187150	1.33e6	1.39e6	7.51e5	8.31e5
RhoGAP92B	SID104194299	1.17e6	1.18e6	1.10e6	1.17e6
RhoGAP92B	SID104195429	1.12e6	1.16e6	1.15e6	1.18e6
Rbf	SID104198496	5.98e5		9.86e5	
CG6462	SID104190433	1.54e6	1.47e6	1.08e6	1.19e6
CG1208	SID104191982	1.56e6	1.70e6	1.27e6	1.32e6
Targ3	SID104191263	1.53e6	1.85e6	1.16e6	1.35e6
CG14079	SID104189875	1.42e6	1.51e6	1.23e6	1.35e6
CG33125	SID104179937	1.46e6	1.47e6	1.06e6	1.14e6
CG8611	SID104199132	1.36e6	1.44e6	9.96e5	1.12e6
Herp	SID104182186	1.34e6	1.35e6	5.30e5	7.40e5
fd3F (retired record)	SID104197635	1.26e6 (active)	1.40e6	5.87e5	6.63e5
CG2608	SID104182501	1.28e6	1.32e6	1.15e6	1.25e6
CG7102	SID104182439	1.35e6	1.34e6	5.65e5	6.64e5
CG7102	SID104182799	1.80e6	1.84e6	1.15e6	1.30e6

A stretch from the list above, for reference:
target gene	PubChem SID	Kc cell number, rep 1	Kc cell number, rep 2	S2R+ cell number, rep 1	S2R+ cell number, rep 2
CG1208	SID104191982	1.56e6	1.70e6	1.27e6	1.32e6
Targ3	SID104191263	1.53e6	1.85e6	1.16e6	1.35e6
CG14079	SID104189875	1.42e6	1.51e6	1.23e6	1.35e6
CG33125	SID104179937	1.46e6	1.47e6	1.06e6	1.14e6
CG8611	SID104199132	1.36e6	1.44e6	9.96e5	1.12e6
Herp	SID104182186	1.34e6	1.35e6	5.30e5	7.40e5
fd3F (retired record)	SID104197635	1.26e6 (active)	1.40e6	5.87e5	6.63e5
CG2608	SID104182501	1.28e6	1.32e6	1.15e6	1.25e6
CG7102	SID104182439	1.35e6	1.34e6	5.65e5	6.64e5

More records follow.
target gene	PubChem SID	Kc cell number, rep 1	Kc cell number, rep 2	S2R+ cell number, rep 1	S2R+ cell number, rep 2
CG18631 (retired record)	SID104186571	1.54e6	1.56e6	1.15e6	1.28e6
robo2	SID104180169	1.52e6	1.58e6	1.11e6	1.23e6
robo2	SID104180170	1.55e6	1.57e6	1.07e6	1.26e6
robo2	SID104180478	1.56e6	1.52e6	1.10e6	1.25e6
robo2	SID104180483	1.26e6	1.33e6	1.08e6	1.06e6
elfless	SID104182243	1.67e6	1.67e6	1.37e6	1.59e6
Or49a	SID104187285	1.51e6	1.53e6	1.18e6	1.30e6
CG9875	SID104184377	1.63e6	1.65e6	1.30e6	1.41e6
SLC5A11	SID104182880	1.33e6	1.31e6	6.37e5	8.81e5
CG15147	SID104182239	1.70e6	1.74e6	1.05e6	1.22e6
CG15147	SID104182240	1.85e6	1.88e6	1.45e6	1.58e6
sona	SID104183881	1.50e6	1.58e6	1.32e6	1.42e6
sona	SID104184366	1.48e6	1.55e6	1.15e6	1.24e6
sona	SID104184367	1.46e6	1.52e6	1.28e6	1.39e6
wus	SID104200070	1.47e6	1.53e6	1.04e6	1.23e6
tacc	SID104191811	1.55e6	1.76e6	1.26e6	1.41e6
tacc	SID104192180	1.44e6	1.46e6	1.54e6	1.54e6
Pfdn6	SID104190707	1.41e6	1.44e6	1.29e6	1.37e6
CG15256	SID104181732	1.51e6	1.56e6	1.24e6	1.42e6
Ser12	SID104180578	1.43e6	1.48e6	9.80e5	1.16e6
MYPT-75D	SID104190535	1.47e6	1.52e6	1.35e6	1.38e6
CG9389	SID104191649	1.46e6	1.55e6	1.32e6	1.36e6
Cyt-b5	SID104187184	1.04e6	1.26e6	8.15e5	8.10e5
Tep2	SID104182471	1.51e6	1.65e6	1.26e6	1.44e6
Tep2	SID104183243	1.59e6	1.73e6	1.17e6	1.39e6
CG7800	SID104196107	1.60e6	1.76e6	1.32e6	1.43e6
CG6495	SID104181785	1.28e6	1.34e6	1.03e6	1.10e6
